Data reported in patent US20160369115A1, “POLARIZING PLATE COMPOSITION, POLARIZING PLATE PROTECTIVE FILM, POLARIZER, POLARIZING PLATE, LIQUID CRYSTAL DISPLAY DEVICE, AND COMPOUND USED IN THE LIQUID CRYSTAL DISPLAY DEVICE” (FUJIFILM Corporation, priority 2014, published 2016).

Columns and labels:
[1] = Evaluation of durability of polarizing plate, additive in adhesive layer (Example 3); details: added amount 10.0 per 100 parts by mass of the polyvinyl alcohol resin, film thickness 5 μm; for Durability of polarizer: amount of change of orthogonal transmittance (%) 60° C., 95%, 500 hours / Durability of polarizer: amount of change of orthogonal transmittance (%) 60° C., 95%, 1,000 hours / Durability of polarizer: amount of change of orthogonal transmittance (%) 80° C., Dry 500 hours / Durability of polarizer: amount of change of orthogonal transmittance (%) 80° C., Dry, 1,000 hours: 410 nm
[2] = Bleed-out properties in polarizer (haze evaluation); details: haze of polarizing plate; additive in polarizer, added amount 1.0 per 100 parts by mass of polyvinyl alcohol resin
[3] = Evaluation of durability of polarizing plate, additive in polarizer (Example 2); details: added amount 1.0 per 100 parts by mass of polyvinyl alcohol resin, 410 nm
[4] = Bleed-out properties in adhesive layer (haze evaluation); details: additive in adhesive layer, added amount 10.0 per 100 parts by mass of the polyvinyl alcohol resin, film thickness 5 μm

Row | Compound | Durability of polarizer: amount of change of degree of polarization (%) 60° C., 95%, 500 hours [1] | Durability of polarizer: amount of change of degree of polarization (%) 60° C., 95%, 1,000 hours [1] | Durability of polarizer: amount of change of degree of polarization (%) 80° C., Dry, 500 hours [1] | Durability of polarizer: amount of change of degree of polarization (%) 80° C., Dry, 1,000 hours [1] | Durability of polarizer: amount of change of orthogonal transmittance (%) 60° C., 95%, 500 hours [1] | Durability of polarizer: amount of change of orthogonal transmittance (%) 60° C., 95%, 1,000 hours [1] | Durability of polarizer: amount of change of orthogonal transmittance (%) 80° C., Dry 500 hours [1] | Durability of polarizer: amount of change of orthogonal transmittance (%) 80° C., Dry, 1,000 hours [1] | Bleed out [2] | Durability of polarizer: amount of change of degree of polarization (%) 60° C., 95%, 500 hours [3] | Durability of polarizer: amount of change of degree of polarization (%) 60° C., 95%, 1,000 hours [3] | Durability of polarizer: amount of change of degree of polarization (%) 80° C., Dry, 500 hours [3] | Durability of polarizer: amount of change of degree of polarization (%) 80° C., Dry, 1,000 hours [3] | Durability of polarizer: amount of change of orthogonal transmittance (%) 60° C., 95%, 500 hours [3] | Durability of polarizer: amount of change of orthogonal transmittance (%) 60° C., 95%, 1,000 hours [3] | Durability of polarizer: amount of change of orthogonal transmittance (%) 80° C., Dry 500 hours [3] | Durability of polarizer: amount of change of orthogonal transmittance (%) 80° C., Dry, 1,000 hours [3] | Bleed out [4]
1 | COC(=O)Oc1[nH]c(=O)n(Cc2ccc(F)c(F)c2)c(=O)c1Cc1ccc(S(=O)(=O)[O-])cc1S(=O)(=O)[O-].[Na+].[Na+] [Example compound AAS] | A (The amount of change of the degree of polarization before and after the elapse of time was equal to or greater than 0.05% and less than 2.0%.) | A (The amount of change of the degree of polarization before and after the elapse of time was equal to or greater than 1.0% and less than 4.0%.) | A (The amount of change of the degree of polarization before and alter the elapse of time was equal to or greater than 0.05% and less than 1.0%.) | A (The amount of change of the degree of polarization before and after the elapse of time was equal to or greater than 0.1% and less than 2.0%.) | A (The amount of change of the orthogonal transmittance before and after the elapse of time was equal to or greater than 0.1% and less than 0.4%.) | A (The amount of change of the orthogonal transmittance before and after the elapse of time was equal to or greater than 0.5% and less than 1.0%.) | A (The amount of change of the orthogonal transmittance before and after the elapse of time was equal to or greater than 0.05% and less than 0.1%.) | A (The amount of change of the orthogonal transmittance before and after the elapse of time was equal to or greater than 0.1% and less than 0.3%.) | A (The haze was less than 0.3%.) | A (The amount of change of the orthogonal transmittance before and after the elapse of time was equal to or greater than 0.05% and less than 2.0%.) | A (The amount of change of the degree of polarization before and after the elapse of time was equal to or greater than 1.0% and less than 4.0%.) | A (The amount of change of the degree of polarization before and after the elapse of time was equal to or greater than 0.05% and less than 1.0%.) | A (The amount of change of the degree of polarization before and after the elapse of time was equal to or greater than 0.1% and less than 2.0%.) | A+ (The amount of change of the orthogonal transmittance before and after the elapse of time was less than 0.1%.) | A (The amount of change of the orthogonal transmittance before and after the elapse of time was equal to or greater than 0.5% and less than 1.0%.) | A (The amount of change of the orthogonal transmittance before and after the elapse of time was equal to or greater than 0.05% and less than 0.1%.) | A (The amount of change of the orthogonal transmittance before and after the elapse of time was equal to or greater than 0.1% and less than 0.3%.) | A (The haze was less than 0.3%.)
2 | O=C(Oc1c(Cc2ccccc2S(=O)(=O)[O-])c(=O)n(-c2ccccc2)c(=O)n1-c1ccccc1)OC1c2ccccc2-c2ccccc21.[Na+] [Example compound H] | A+ (The amount of change of the degree of polarization before and after the elapse of time was less than 0.05%.) | A+ (The amount of change of the degree of polarization before and after the elapse of time was less than 1.0%.) | A+ (The amount of change of the degree of polarization before and after the elapse of time was less than 0.05%.) | A+ (The amount of change of the degree of polarization before and after the elapse of time was less than 0.1%.) | A+ (The amount of change of the orthogonal transmittance before and after the elapse of time was less than 0.1%.) | A+ (The amount of change of the orthogonal transmittance before and after the elapse of time was less than 0.5%.) | A+ (The amount of change of the orthogonal transmittance before and after the elapse of time was less than 0.05%.) | A+ (The amount of change of the orthogonal transmittance before and after the elapse of time was less than 0.1%.) | A (The haze was less than 0.3%.) | A+ (The amount of change of the degree of polarization before and after the elapse of time was less than 0.05%.) | A+ (The amount of change of the degree of polarization before and after the elapse of time was less than 1.0%.) | A+ (The amount of change of the degree of polarization before and after the elapse of time was less than 0.05%.) | A+ (The amount of change of the degree of polarization before and after the elapse of time was less than 0.1%.) | A+ (The amount of change of the orthogonal transmittance before and after the elapse of time was less than 0.1%.) | A+ (The amount of change of the orthogonal transmittance before and after the elapse of time was less than 0.5%.) | A+ (The amount of change of the orthogonal transmittance before and after the elapse of time was less than 0.05%.) | A+ (The amount of change of the orthogonal transmittance before and after the elapse of time was less than 0.1%.) | A (The haze was less than 0.3%.)
3 | O=C([O-])c1ccc(Cc2c(OCOCc3ccccc3)n(-c3ccccc3)c(=O)n(-c3ccccc3)c2=O)cc1.[Na+] [Example compound O] | A+ (The amount of change of the degree of polarization before and after the elapse of time was less than 0.05%.) | A+ (The amount of change of the degree of polarization before and after the elapse of time was less than 1.0%.) | A+ (The amount of change of the degree of polarization before and after the elapse of time was less than 0.05%.) | A+ (The amount of change of the degree of polarization before and after the elapse of time was less than 0.1%.) | A+ (The amount of change of the orthogonal transmittance before and after the elapse of time was less than 0.1%.) | A+ (The amount of change of the orthogonal transmittance before and after the elapse of time was less than 0.5%.) | A+ (The amount of change of the orthogonal transmittance before and after the elapse of time was less than 0.05%.) | A+ (The amount of change of the orthogonal transmittance before and after the elapse of time was less than 0.1%.) | A (The haze was less than 0.3%.) | A+ (The amount of change of the degree of polarization before and after the elapse of time was less than 0.05%.) | A+ (The amount of change of the degree of polarization before and after the elapse of time was less than 1.0%.) | A+ (The amount of change of the degree of polarization before and after the elapse of time was less than 0.05%.) | A+ (The amount of change of the degree of polarization before and after the elapse of time was less than 0.1%.) | A+ (The amount of change of the orthogonal transmittance before and after the elapse of time was less than 0.1%.) | A+ (The amount of change of the orthogonal transmittance before and after the elapse of time was less than 0.5%.) | A+ (The amount of change of the orthogonal transmittance before and after the elapse of time was less than 0.05%.) | A+ (The amount of change of the orthogonal transmittance before and after the elapse of time was less than 0.1%.) | A (The haze was less than 0.3%.)
